Laboratory results reported in paper PMC8384837.
Substitutions are numbered along the chain they refer to. This is one part of the list. For part of these data: At the low end of the ranking, values are background and their order means little. For part of these data: The exact form of the protein is not confirmed.

How the values were obtained:
Settings in all cases: yeast three-hybrid, YBZ-1, SC-Leu-His + 0.5 mM 3-AT, 4 days
[1] = target: T1, PUM1 PUF domain R2-VFQ R3-THE R4-TFR N899V + Y900F + C935T + R936H + Q939E + N971T + H972F + Q975R (UniProt Q14671)
T1 sequence: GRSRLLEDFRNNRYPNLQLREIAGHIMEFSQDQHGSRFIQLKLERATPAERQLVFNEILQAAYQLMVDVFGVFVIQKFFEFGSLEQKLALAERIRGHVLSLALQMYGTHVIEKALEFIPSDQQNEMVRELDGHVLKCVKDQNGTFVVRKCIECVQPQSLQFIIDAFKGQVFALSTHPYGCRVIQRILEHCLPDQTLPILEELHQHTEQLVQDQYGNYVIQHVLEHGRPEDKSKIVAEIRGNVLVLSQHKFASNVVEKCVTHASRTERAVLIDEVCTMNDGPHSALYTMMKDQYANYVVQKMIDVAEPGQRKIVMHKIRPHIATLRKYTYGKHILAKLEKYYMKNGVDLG

[2] = target: T2, PUM1 PUF domain R3-THE R4-TFR R7-NPG C935T + R936H + Q939E + N971T + H972F + Q975R + S1079N + N1080P + E1083G (UniProt Q14671)
T2 sequence: T1 sequence with V72N, F73Y, S252N, N253P, E256G

[3] = target: T3, PUM1 PUF domain R3-THE R4-TFR R7-NPG C935T + R936H + Q939E + N971T + H972F + Q975R + S1079N + N1080P + E1083G (Homo sapiens) (UniProt Q14671)
T3 sequence: T1 sequence with V72N, F73Y, S252N, N253P, E256G

[4] = target: T4, PUM1 PUF domain R6-SWD R7-NPG N1043S + Y1044W + Q1047D + S1079N + N1080P + E1083G (Homo sapiens) (UniProt Q14671)
T4 sequence: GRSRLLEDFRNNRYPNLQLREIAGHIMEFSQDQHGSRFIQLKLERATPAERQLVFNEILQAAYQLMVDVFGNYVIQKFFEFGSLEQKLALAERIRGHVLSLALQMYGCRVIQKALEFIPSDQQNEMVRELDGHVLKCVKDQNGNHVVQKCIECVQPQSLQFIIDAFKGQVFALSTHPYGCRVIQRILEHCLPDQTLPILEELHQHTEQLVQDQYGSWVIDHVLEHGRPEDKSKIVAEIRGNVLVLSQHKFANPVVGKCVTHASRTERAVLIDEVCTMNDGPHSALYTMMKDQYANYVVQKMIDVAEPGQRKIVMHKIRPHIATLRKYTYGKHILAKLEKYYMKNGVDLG

[5] = target: T5, PUM1 PUF domain R5-PHQ R6-SWD C1007P + R1008H + N1043S + Y1044W + Q1047D (UniProt Q14671)
T5 sequence: T4 sequence with C180P, R181H, N252S, P253N, G256E

[6] = target: T6, PUM1 PUF domain R6-SWD R7-NPG N1043S + Y1044W + Q1047D + S1079N + N1080P + E1083G (UniProt Q14671)
T6 sequence: T4 sequence

Which binding signal (log2 enrichment (interaction score)) [1] does the source give for “GGCUAGAACUAGUGGAUCCCCCGGCGCCCGGCGGCUCGAGCCCGGGUAAGGCCAAGAUGUCUGCAUGCCGCCGGGCGCCAUGCCUGCAGGUCGACUCUAGAAAACAUG” here?
Its binding signal (log2 enrichment (interaction score)) is -6.12.

And the binding signal (log2 enrichment (interaction score)) [2]?
The binding signal (log2 enrichment (interaction score)) was -2.16.

For “GGCUAGAACUAGUGGAUCCCCCGGCGCCCGGCGGCUCGAGCCCGGGUAAGUGGUGUAUGUCUGCAUGCCGCCGGGCGCCAUGCCUGCAGGUCGACUCUAGAAAACAUG”, which binding signal (log2 enrichment (interaction score)) [1] is on record?
Its binding signal (log2 enrichment (interaction score)) is -5.07.

What about the binding signal (log2 enrichment (interaction score)) [3] of the same sequence?
Its binding signal (log2 enrichment (interaction score)) is -1.09.

For “GGCUAGAACUAGUGGAUCCCCCGGCGCCCGGCGGCUCGAGCCCGGGUAAGAGCGCGAAGUCUGCAUGCCGCCGGGCGCCAUGCCUGCAGGUCGACUCUAGAAAACAUG”, which binding signal (log2 enrichment (interaction score)) [1] is on record?
Its binding signal (log2 enrichment (interaction score)) is -5.12.

And the binding signal (log2 enrichment (interaction score)) [2]?
Its binding signal (log2 enrichment (interaction score)) is -2.25.

With “GGCUAGAACUAGUGGAUCCCCCGGCGCCCGGCGGCUCGAGCCCGGGUAAGUAUUGAUCGUCUGCAUGCCGCCGGGCGCCAUGCCUGCAGGUCGACUCUAGAAAACAUG” as the sequence, how does the binding signal (log2 enrichment (interaction score)) [1] read?
The binding signal (log2 enrichment (interaction score)) was -6.34.

What about the binding signal (log2 enrichment (interaction score)) [3] of the same sequence?
The binding signal (log2 enrichment (interaction score)) was -1.89.

And the binding signal (log2 enrichment (interaction score)) [4]?
Its binding signal (log2 enrichment (interaction score)) is -0.63.

Which binding signal (log2 enrichment (interaction score)) [1] does the source give for “GGCUAGAACUAGUGGAUCCCCCGGCGCCCGGCGGCUCGAGCCCGGGUAAGAUUACGUCGUCUGCAUGCCGCCGGGCGCCAUGCCUGCAGGUCGACUCUAGAAAACAUG” here?
Its binding signal (log2 enrichment (interaction score)) is -5.29.

What about the binding signal (log2 enrichment (interaction score)) [2] of the same sequence?
The binding signal (log2 enrichment (interaction score)) was -2.51.

Which results are given for “GGCUAGAACUAGUGGAUCCCCCGGCGCCCGGCGGCUCGAGCCCGGGUAAGUGUUCGUAGUCUGCAUGCCGCCGGGCGCCAUGCCUGCAGGUCGACUCUAGAAAACAUG”?
binding signal (log2 enrichment (interaction score)) [1]: -5.03; binding signal (log2 enrichment (interaction score)) [3]: < -0.99; binding signal (log2 enrichment (interaction score)) [5]: -7.68

With “GGCUAGAACUAGUGGAUCCCCCGGCGCCCGGCGGCUCGAGCCCGGGUAAGAUCAUUCAGUCUGCAUGCCGCCGGGCGCCAUGCCUGCAGGUCGACUCUAGAAAACAUG” as the sequence, how does the binding signal (log2 enrichment (interaction score)) [1] read?
Its binding signal (log2 enrichment (interaction score)) is -4.86.

And the binding signal (log2 enrichment (interaction score)) [3]?
Its binding signal (log2 enrichment (interaction score)) is -1.26.

Which results are given for “GGCUAGAACUAGUGGAUCCCCCGGCGCCCGGCGGCUCGAGCCCGGGUAAGGCUACAAGGUCUGCAUGCCGCCGGGCGCCAUGCCUGCAGGUCGACUCUAGAAAACAUG”?
binding signal (log2 enrichment (interaction score)) [1]: -5.57; binding signal (log2 enrichment (interaction score)) [2]: -2.59

“GGCUAGAACUAGUGGAUCCCCCGGCGCCCGGCGGCUCGAGCCCGGGUAAGGGUAAGAAGUCUGCAUGCCGCCGGGCGCCAUGCCUGCAGGUCGACUCUAGAAAACAUG” was tested. Which binding signal (log2 enrichment (interaction score)) [1] did it give?
The binding signal (log2 enrichment (interaction score)) was -6.2.

And the binding signal (log2 enrichment (interaction score)) [5]?
The binding signal (log2 enrichment (interaction score)) was under -7.66.

Which binding signal (log2 enrichment (interaction score)) [1] does the source give for “GGCUAGAACUAGUGGAUCCCCCGGCGCCCGGCGGCUCGAGCCCGGGUAAGUUGAACACGUCUGCAUGCCGCCGGGCGCCAUGCCUGCAGGUCGACUCUAGAAAACAUG” here?
Its binding signal (log2 enrichment (interaction score)) is -5.34.

What about the binding signal (log2 enrichment (interaction score)) [3] of the same sequence?
Its binding signal (log2 enrichment (interaction score)) is -1.76.

And the binding signal (log2 enrichment (interaction score)) [5]?
Its binding signal (log2 enrichment (interaction score)) is -9.09.

What about the binding signal (log2 enrichment (interaction score)) [4] of the same sequence?
The binding signal (log2 enrichment (interaction score)) was -1.71.

“GGCUAGAACUAGUGGAUCCCCCGGCGCCCGGCGGCUCGAGCCCGGGUAAGUCGAAAACGUCUGCAUGCCGCCGGGCGCCAUGCCUGCAGGUCGACUCUAGAAAACAUG” was tested. Which binding signal (log2 enrichment (interaction score)) [1] did it give?
The binding signal (log2 enrichment (interaction score)) was -5.06.

What about the binding signal (log2 enrichment (interaction score)) [3] of the same sequence?
The binding signal (log2 enrichment (interaction score)) was -0.99.

And the binding signal (log2 enrichment (interaction score)) [5]?
Its binding signal (log2 enrichment (interaction score)) is under -8.3.

What about the binding signal (log2 enrichment (interaction score)) [4] of the same sequence?
The binding signal (log2 enrichment (interaction score)) was -0.94.

Which results are given for “GGCUAGAACUAGUGGAUCCCCCGGCGCCCGGCGGCUCGAGCCCGGGUAAGUGGACAUUGUCUGCAUGCCGCCGGGCGCCAUGCCUGCAGGUCGACUCUAGAAAACAUG”?
binding signal (log2 enrichment (interaction score)) [1]: -6.09; binding signal (log2 enrichment (interaction score)) [3]: -1.42; binding signal (log2 enrichment (interaction score)) [5]: -6.65

With “GGCUAGAACUAGUGGAUCCCCCGGCGCCCGGCGGCUCGAGCCCGGGUAAGUUGCAAAGGUCUGCAUGCCGCCGGGCGCCAUGCCUGCAGGUCGACUCUAGAAAACAUG” as the sequence, how does the binding signal (log2 enrichment (interaction score)) [1] read?
Its binding signal (log2 enrichment (interaction score)) is -5.52.

And the binding signal (log2 enrichment (interaction score)) [3]?
The binding signal (log2 enrichment (interaction score)) was under -1.37.

And the binding signal (log2 enrichment (interaction score)) [6]?
Its binding signal (log2 enrichment (interaction score)) is -2.53.

“GGCUAGAACUAGUGGAUCCCCCGGCGCCCGGCGGCUCGAGCCCGGGUAAGGUGAUGUAGUCUGCAUGCCGCCGGGCGCCAUGCCUGCAGGUCGACUCUAGAAAACAUG” was tested. Which binding signal (log2 enrichment (interaction score)) [1] did it give?
Its binding signal (log2 enrichment (interaction score)) is -5.4.

What about the binding signal (log2 enrichment (interaction score)) [2] of the same sequence?
Its binding signal (log2 enrichment (interaction score)) is -2.06.

And the binding signal (log2 enrichment (interaction score)) [4]?
Its binding signal (log2 enrichment (interaction score)) is -0.29.

For “GGCUAGAACUAGUGGAUCCCCCGGCGCCCGGCGGCUCGAGCCCGGGUAAGUGUAACAAGUCUGCAUGCCGCCGGGCGCCAUGCCUGCAGGUCGACUCUAGAAAACAUG”, which binding signal (log2 enrichment (interaction score)) [1] is on record?
Its binding signal (log2 enrichment (interaction score)) is -5.71.

What about the binding signal (log2 enrichment (interaction score)) [3] of the same sequence?
Its binding signal (log2 enrichment (interaction score)) is -1.74.

And the binding signal (log2 enrichment (interaction score)) [5]?
Its binding signal (log2 enrichment (interaction score)) is under -8.42.

For “GGCUAGAACUAGUGGAUCCCCCGGCGCCCGGCGGCUCGAGCCCGGGUAAGGUUGCCAUGUCUGCAUGCCGCCGGGCGCCAUGCCUGCAGGUCGACUCUAGAAAACAUG”, which binding signal (log2 enrichment (interaction score)) [1] is on record?
The binding signal (log2 enrichment (interaction score)) was -5.48.

And the binding signal (log2 enrichment (interaction score)) [2]?
The binding signal (log2 enrichment (interaction score)) was -2.02.

How did the binding signal (log2 enrichment (interaction score)) [1] turn out when “GGCUAGAACUAGUGGAUCCCCCGGCGCCCGGCGGCUCGAGCCCGGGUAAGUGGGCCUAGUCUGCAUGCCGCCGGGCGCCAUGCCUGCAGGUCGACUCUAGAAAACAUG” was run?
The binding signal (log2 enrichment (interaction score)) was -5.76.

What about the binding signal (log2 enrichment (interaction score)) [3] of the same sequence?
The binding signal (log2 enrichment (interaction score)) was -1.11.

And the binding signal (log2 enrichment (interaction score)) [5]?
Its binding signal (log2 enrichment (interaction score)) is under -7.35.
